Assay [1] deals with HA-tagged RSV NS2 protein (human respiratory syncytial virus) (UniProt P04543). In words: co-IP; A549 cells expressing HA-NS2; HA-NS2 IP with anti-HA antibody, immunoblot with anti-Beclin1. In general terms: A western blot detects proteins with antibodies after separation by electrophoresis.
Assay [2] has the same target. In words: co-IP; HEp-2 cells expressing HA-NS2; HA-NS2 IP with anti-HA antibody, immunoblot with anti-Beclin1.
In assay [3] the target is endogenous Beclin1 (human (endogenous in A549 and HEp-2)) (UniProt Q14457). In words: co-IP; HEp-2 cells expressing HA-NS2; endogenous Beclin1 IP with anti-Beclin1 antibody, immunoblot with anti-HA.
Assay [4] has the same target. Briefly: co-IP; A549 cells expressing HA-NS2; endogenous Beclin1 IP with anti-Beclin1 antibody, immunoblot with anti-HA (also done in cells treated with IFN-β 500 U/mL, Fig. 7B).
Assay [5] has as its target Flag-tagged Beclin1 (human) (UniProt Q14457). In words: co-IP; HEK293 cells coexpressing Flag-Beclin1 and HA-NS2 or HA-NS1; IP with anti-Flag antibody on protein G agarose, immunoblot with anti-HA; lysis in PBS plus Triton X-100, overnight at 4°C.

The chains behind the UniProt entries cited, without tags or fusion partners.
UniProt P04543: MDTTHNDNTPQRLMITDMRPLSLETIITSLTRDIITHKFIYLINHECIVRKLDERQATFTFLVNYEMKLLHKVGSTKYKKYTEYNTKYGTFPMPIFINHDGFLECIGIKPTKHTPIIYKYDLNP
UniProt Q14457: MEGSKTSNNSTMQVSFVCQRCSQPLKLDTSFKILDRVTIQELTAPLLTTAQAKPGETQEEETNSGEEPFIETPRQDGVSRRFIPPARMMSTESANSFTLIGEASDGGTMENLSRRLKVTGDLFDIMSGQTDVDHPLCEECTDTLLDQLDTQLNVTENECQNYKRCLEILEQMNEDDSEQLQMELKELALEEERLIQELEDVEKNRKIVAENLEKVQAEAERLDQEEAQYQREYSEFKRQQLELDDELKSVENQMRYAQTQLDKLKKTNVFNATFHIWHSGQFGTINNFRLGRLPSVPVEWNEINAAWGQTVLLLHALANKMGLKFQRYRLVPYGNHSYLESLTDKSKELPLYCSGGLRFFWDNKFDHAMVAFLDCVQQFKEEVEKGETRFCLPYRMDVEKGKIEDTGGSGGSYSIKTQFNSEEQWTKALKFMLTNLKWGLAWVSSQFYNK

Results are given in words; binding and its absence hold for the method and conditions named. Binding seen in cells or lysates may run through a third protein. Some results given as binding are weak or reduced against the parent protein; the word gives no strength.

In the case of “endogenous Beclin1 (from UniProt Q14457 1-450)”, the binding result in assay [1] and in assay [2] was “binds” in each case.
Regarding “HA-tagged RSV NS2 protein (from UniProt P04543 1-124)”, the binding result in assay [3], in assay [4] and in assay [5] was “binds” in each case.
